Source: the supplement of paper PMC10849652
This is one part of the list.

Protein sequences, listed by entry. Tags and fused reporters are not part of them. Lines headed by an entry give the natural chain unless they say otherwise; changes in a name come on top.
UniProt Q04756: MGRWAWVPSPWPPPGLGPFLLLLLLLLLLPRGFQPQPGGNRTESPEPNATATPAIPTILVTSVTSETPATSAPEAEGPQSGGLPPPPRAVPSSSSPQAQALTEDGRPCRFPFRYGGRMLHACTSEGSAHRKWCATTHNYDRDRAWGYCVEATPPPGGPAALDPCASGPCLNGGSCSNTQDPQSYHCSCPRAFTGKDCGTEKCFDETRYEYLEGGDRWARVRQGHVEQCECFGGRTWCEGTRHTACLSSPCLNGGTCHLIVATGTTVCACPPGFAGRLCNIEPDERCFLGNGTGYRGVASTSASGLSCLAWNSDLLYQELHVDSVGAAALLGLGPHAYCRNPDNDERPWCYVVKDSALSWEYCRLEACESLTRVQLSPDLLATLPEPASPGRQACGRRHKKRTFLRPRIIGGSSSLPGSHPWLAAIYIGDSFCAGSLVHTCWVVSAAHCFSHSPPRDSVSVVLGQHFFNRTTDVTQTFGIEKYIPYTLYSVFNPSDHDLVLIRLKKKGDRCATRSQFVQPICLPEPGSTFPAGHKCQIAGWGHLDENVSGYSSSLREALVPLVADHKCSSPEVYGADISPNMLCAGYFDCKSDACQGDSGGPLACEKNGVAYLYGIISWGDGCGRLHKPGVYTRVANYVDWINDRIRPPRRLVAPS
UniProt P30711: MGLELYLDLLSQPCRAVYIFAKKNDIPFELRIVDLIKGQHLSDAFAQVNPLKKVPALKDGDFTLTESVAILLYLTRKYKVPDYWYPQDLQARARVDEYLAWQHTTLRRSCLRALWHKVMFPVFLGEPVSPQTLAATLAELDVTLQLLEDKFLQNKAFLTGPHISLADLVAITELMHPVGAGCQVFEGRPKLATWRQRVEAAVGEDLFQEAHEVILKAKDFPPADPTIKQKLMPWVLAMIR
UniProt P14210, whole entry, looked up: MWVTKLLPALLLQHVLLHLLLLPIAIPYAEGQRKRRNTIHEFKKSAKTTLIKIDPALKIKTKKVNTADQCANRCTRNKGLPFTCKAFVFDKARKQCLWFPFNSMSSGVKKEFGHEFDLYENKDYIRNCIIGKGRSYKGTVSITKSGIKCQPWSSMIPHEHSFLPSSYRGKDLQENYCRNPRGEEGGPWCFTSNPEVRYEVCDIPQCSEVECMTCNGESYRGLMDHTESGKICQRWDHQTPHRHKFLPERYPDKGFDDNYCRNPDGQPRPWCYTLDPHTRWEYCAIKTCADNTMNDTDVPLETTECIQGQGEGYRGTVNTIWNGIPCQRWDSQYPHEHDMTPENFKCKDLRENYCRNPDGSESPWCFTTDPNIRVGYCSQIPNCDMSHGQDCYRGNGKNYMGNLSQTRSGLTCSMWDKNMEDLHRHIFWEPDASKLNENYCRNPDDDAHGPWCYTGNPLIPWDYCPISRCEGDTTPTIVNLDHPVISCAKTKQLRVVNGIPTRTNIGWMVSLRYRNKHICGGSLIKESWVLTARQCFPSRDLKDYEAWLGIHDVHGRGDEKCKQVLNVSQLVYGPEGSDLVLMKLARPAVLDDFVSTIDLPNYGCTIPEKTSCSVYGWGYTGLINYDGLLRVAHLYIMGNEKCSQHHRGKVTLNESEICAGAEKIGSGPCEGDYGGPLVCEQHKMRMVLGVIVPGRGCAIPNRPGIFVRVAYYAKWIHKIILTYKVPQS
UniProt Q9Y5Q9: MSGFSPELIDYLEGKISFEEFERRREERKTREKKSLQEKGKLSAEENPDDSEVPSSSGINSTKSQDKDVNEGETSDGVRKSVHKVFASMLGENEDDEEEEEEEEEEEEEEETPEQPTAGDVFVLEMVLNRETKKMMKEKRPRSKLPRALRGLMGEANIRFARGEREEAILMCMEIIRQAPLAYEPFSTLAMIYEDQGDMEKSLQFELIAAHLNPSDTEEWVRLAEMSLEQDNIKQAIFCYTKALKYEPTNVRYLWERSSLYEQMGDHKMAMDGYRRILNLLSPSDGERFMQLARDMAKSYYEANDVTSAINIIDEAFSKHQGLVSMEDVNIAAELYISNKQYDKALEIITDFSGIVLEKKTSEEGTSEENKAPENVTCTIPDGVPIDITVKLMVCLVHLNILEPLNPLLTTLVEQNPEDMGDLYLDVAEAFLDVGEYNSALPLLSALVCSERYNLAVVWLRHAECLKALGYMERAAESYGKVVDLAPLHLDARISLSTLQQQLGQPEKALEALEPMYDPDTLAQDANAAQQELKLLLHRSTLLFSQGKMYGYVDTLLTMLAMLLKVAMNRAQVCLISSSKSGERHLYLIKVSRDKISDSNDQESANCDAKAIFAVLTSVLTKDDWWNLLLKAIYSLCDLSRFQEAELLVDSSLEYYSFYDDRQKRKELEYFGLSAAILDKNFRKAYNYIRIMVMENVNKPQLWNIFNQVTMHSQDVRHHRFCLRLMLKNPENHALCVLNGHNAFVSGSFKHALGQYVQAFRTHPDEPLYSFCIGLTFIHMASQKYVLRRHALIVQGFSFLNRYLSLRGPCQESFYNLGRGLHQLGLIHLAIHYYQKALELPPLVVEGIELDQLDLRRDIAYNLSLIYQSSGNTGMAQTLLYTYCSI
UniProt Q96MH2: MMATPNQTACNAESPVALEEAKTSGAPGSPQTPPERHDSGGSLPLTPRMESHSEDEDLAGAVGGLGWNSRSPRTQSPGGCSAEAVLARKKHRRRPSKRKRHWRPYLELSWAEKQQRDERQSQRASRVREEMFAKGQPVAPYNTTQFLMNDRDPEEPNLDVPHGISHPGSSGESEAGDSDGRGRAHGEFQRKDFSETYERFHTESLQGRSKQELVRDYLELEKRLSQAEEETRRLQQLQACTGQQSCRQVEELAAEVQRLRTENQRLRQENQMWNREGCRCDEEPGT
UniProt Q99871: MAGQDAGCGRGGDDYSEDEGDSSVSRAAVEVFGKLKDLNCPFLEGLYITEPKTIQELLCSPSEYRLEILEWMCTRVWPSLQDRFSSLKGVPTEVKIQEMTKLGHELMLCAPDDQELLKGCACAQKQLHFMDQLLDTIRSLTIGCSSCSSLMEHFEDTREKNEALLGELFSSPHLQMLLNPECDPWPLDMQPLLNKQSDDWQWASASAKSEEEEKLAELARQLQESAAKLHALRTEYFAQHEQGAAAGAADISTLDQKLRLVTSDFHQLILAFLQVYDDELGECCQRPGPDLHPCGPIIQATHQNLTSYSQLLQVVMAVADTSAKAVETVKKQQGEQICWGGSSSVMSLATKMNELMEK
UniProt P15170, whole entry, looked up: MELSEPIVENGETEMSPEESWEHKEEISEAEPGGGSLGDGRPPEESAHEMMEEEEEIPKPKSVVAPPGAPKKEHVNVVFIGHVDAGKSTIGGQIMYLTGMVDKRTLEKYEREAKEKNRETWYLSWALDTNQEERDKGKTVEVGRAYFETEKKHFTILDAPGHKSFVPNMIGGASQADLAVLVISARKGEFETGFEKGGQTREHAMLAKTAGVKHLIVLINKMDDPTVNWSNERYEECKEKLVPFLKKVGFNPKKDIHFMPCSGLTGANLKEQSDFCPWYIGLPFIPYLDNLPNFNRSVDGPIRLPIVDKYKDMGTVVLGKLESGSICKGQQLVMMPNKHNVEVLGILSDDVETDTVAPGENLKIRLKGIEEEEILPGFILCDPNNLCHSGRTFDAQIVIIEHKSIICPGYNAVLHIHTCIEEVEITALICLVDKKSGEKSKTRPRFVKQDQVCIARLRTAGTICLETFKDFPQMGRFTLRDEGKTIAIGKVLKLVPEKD
UniProt Q9H116: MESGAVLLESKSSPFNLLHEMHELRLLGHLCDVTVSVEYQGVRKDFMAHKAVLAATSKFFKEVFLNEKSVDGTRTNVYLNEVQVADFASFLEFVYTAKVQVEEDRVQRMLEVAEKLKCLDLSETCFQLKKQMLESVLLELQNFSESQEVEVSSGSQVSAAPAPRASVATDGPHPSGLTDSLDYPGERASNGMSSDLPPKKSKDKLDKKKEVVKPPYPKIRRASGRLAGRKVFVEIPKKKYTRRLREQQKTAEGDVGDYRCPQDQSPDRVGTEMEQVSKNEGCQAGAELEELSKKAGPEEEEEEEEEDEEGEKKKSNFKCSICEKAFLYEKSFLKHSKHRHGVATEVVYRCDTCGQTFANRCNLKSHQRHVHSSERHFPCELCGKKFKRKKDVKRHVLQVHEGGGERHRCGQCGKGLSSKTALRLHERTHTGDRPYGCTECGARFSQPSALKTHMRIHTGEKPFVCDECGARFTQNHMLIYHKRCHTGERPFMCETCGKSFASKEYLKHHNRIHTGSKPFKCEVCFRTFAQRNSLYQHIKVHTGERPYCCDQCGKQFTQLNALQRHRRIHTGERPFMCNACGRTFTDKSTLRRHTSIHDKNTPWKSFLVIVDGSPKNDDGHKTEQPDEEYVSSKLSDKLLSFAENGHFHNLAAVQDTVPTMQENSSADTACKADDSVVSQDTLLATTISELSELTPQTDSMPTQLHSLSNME
UniProt Q9P0R6: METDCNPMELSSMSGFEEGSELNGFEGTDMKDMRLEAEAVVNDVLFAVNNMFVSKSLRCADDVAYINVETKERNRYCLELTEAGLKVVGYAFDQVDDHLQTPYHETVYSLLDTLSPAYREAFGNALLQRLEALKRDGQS
UniProt Q9BSE4: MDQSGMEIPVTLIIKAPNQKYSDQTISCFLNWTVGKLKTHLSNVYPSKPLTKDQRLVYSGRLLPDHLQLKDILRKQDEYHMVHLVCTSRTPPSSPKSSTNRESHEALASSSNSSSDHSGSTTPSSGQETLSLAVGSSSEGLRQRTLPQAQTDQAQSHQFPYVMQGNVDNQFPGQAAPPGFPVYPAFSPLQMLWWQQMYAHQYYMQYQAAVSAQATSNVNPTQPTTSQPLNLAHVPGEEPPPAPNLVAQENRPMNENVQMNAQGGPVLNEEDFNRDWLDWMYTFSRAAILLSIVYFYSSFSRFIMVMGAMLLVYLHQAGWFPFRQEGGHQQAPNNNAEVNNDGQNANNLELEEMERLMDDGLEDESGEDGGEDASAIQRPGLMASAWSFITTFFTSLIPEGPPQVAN
UniProt Q9BY41: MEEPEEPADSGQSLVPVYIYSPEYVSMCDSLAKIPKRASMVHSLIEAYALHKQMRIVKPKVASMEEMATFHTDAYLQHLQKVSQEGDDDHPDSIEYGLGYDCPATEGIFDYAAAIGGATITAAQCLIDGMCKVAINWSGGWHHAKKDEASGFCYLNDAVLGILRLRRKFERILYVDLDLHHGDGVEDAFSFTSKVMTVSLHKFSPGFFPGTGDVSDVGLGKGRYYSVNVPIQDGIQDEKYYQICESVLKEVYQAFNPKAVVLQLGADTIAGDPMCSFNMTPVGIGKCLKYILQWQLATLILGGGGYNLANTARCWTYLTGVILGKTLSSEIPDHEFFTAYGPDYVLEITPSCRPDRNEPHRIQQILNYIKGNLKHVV
UniProt Q6Y1H2: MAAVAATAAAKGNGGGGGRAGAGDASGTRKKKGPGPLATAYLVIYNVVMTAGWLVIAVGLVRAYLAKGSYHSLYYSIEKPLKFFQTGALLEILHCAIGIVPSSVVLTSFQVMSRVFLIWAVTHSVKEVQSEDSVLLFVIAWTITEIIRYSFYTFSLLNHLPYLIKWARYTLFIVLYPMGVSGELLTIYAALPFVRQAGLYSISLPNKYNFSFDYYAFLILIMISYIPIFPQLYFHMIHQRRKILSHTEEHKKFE
UniProt Q9NRZ9: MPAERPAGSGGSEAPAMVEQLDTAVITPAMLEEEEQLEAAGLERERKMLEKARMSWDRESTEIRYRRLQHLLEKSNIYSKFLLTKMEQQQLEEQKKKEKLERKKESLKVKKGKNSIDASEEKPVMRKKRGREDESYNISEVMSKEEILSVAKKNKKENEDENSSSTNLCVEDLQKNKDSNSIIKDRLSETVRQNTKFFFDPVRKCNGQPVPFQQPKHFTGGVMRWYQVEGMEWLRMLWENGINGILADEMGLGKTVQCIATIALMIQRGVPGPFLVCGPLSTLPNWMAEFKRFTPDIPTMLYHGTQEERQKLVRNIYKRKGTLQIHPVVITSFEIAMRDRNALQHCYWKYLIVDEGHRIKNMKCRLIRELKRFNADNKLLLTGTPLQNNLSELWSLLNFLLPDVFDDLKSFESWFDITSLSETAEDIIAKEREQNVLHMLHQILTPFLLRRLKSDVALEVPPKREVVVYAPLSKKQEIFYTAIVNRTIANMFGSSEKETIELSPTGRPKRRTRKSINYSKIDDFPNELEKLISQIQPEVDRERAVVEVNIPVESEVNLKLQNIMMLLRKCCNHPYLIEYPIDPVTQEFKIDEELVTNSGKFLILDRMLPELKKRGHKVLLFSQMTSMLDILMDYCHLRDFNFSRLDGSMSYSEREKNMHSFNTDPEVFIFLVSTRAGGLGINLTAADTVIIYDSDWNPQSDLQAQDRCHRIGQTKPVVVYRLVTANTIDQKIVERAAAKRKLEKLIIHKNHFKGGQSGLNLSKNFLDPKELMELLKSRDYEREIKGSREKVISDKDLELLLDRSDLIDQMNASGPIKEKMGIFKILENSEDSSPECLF
UniProt P07305, whole entry, looked up: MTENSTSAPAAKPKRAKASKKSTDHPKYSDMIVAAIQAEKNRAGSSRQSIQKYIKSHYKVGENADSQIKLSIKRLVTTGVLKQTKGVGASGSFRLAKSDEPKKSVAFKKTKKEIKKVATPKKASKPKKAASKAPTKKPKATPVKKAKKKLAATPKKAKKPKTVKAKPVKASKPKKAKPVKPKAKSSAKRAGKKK

Columns and labels:
Assay in all cases: log2 fold change, soluble protein after heating vs DMSO (PISA); higher = thermal stabilisation; K562 cells, 10 uM, 30 min; active = over 0.2 and 3.5 SD of the protein, either way, in both replicates (recomputed)
duvelisib = compound: C[C@H](Nc1ncnc2nc[nH]c12)c1cc2cccc(Cl)c2c(=O)n1-c1ccccc1 [duvelisib]
Summary of the method: (§1)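 Aliquots of K562 cells (2×10^6 cells/mL) treated with 10 μM compound for 30 min were heated for 3 min over 48°C-58°C. After pooling and extraction in PBS with 0.5% NP-40 at 4°C, soluble protein from a 21,000xg, 90 min spin was quantified by TMTpro 16plex LC-MS/MS with channel sums equalised. Thermal stability is expressed against control samples, from duplicates, as a log2 fold change.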

[1] = compound: Cc1cc(SCc2sc(-c3ccc(C(F)(F)F)cc3)nc2C)ccc1OCC(=O)O
Summary of the method: as §1

bafetinib = compound: Cc1ccc(NC(=O)c2ccc(CN3CC[C@H](N(C)C)C3)c(C(F)(F)F)c2)cc1Nc1nccc(-c2cncnc2)n1 [bafetinib]
Summary of the method: as §1

dasatinib = compound: Cc1nc(Nc2ncc(C(=O)Nc3c(C)cccc3Cl)s2)cc(N2CCN(CCO)CC2)n1 [dasatinib]
Summary of the method: as §1

tipifarnib = compound: Cn1cncc1[C@@](N)(c1ccc(Cl)cc1)c1ccc2c(c1)c(-c1cccc(Cl)c1)cc(=O)n2C [tipifarnib]
Summary of the method: as §1

crizotinib = compound: C[C@@H](Oc1cc(-c2cnn(C3CCNCC3)c2)cnc1N)c1c(Cl)ccc(F)c1Cl [crizotinib]
Summary of the method: as §1

[2] = compound: C[C@@H]1COCCN1C2=NC(=NC(=C2)C3(CC3)S(=O)(=O)C)C4=C5C=CNC5=CC=C4
Summary of the method: as §1

tozasertib = compound: Cc1cc(Nc2cc(N3CCN(C)CC3)nc(Sc3ccc(NC(=O)C4CC4)cc3)n2)n[nH]1 [tozasertib]
Summary of the method: as §1

doramapimod = compound: Cc1ccc(-n2nc(C(C)(C)C)cc2NC(=O)Nc2ccc(OCCN3CCOCC3)c3ccccc23)cc1 [doramapimod]
Summary of the method: as §1

nilotinib = compound: Cc1cn(-c2cc(NC(=O)c3ccc(C)c(Nc4nccc(-c5cccnc5)n4)c3)cc(C(F)(F)F)c2)cn1 [nilotinib]
Summary of the method: as §1

[3] = compound: Cc1nc(Nc2n[nH]c3c2CN(C(=O)N[C@H](CN(C)C)c2ccccc2)C3(C)C)c2sccc2n1
Summary of the method: as §1

[4] = compound: Cc1ncc(-c2ccnc(Nc3ccc(S(C)(=O)=O)cc3)n2)n1C(C)C
Summary of the method: as §1

mubritinib = compound: FC(F)(F)c1ccc(/C=C/c2nc(COc3ccc(CCCCn4ccnn4)cc3)co2)cc1 [mubritinib]
Summary of the method: as §1

[5] = compound: C[C@H](C1=CC=C(C=C1)C(=O)NC2=C3C=CNC3=NC=C2)N
Summary of the method: as §1

gandotinib = compound: Cc1cc(Nc2cc(CN3CCOCC3)c3nc(C)c(Cc4ccc(Cl)cc4F)n3n2)n[nH]1 [gandotinib]
Summary of the method: as §1

ispinesib = compound: Cc1ccc(C(=O)N(CCCN)[C@@H](c2nc3cc(Cl)ccc3c(=O)n2Cc2ccccc2)C(C)C)cc1 [ispinesib]
Summary of the method: as §1

[6] = compound: Cc1cccc(CC(=O)N2CCc3c2ccc(-c2cn(C)c4ncnc(N)c24)c3F)n1
Summary of the method: as §1

[7] = compound: Cn1cc(-c2ccc3c(c2)CCN3C(=O)Cc2cccc(C(F)(F)F)c2)c2c(N)ncnc21
Summary of the method: as §1

[8] = compound: Cn1cc(-c2ccc3nnc(C(F)(F)c4ccc5ncccc5c4)n3n2)cn1
Summary of the method: as §1

[9] = compound: CS(=O)(=O)c1ccc(-c2cnc(N)c(C(=O)Nc3ccccc3)n2)cc1
Summary of the method: as §1

Measured: log2 fold change

HFM1 (UniProt A2PYH4)
inactive: duvelisib -0.027 | [1] 0.049 | bafetinib -0.283 | dasatinib 0.029 | tipifarnib -0.127

HGFAC (UniProt Q04756)
inactive: crizotinib 0.181 | [2] -0.037 | duvelisib -0.329 | tozasertib -0.02 | [1] -0.161 | doramapimod 0.129 | bafetinib -0.139 | nilotinib 0.178 | [3] 0.276 | dasatinib 0.038 | [4] 0.224 | tipifarnib 0.034 | mubritinib -0.434

HECTD4 (UniProt Q9Y4D8)
inactive: crizotinib -0.029 | doramapimod 0.146 | mubritinib 0.041

GSTT1 (UniProt P30711)
inactive: [2] 0.19 | [5] 0.002 | gandotinib 0.19 | [1] -0.061 | doramapimod -0.003 | ispinesib 0.026 | bafetinib -0.019 | [6] -0.144 | nilotinib 0.056 | [3] -0.019 | dasatinib 0.143 | [4] -0.033 | [7] 0.014 | [8] 0.043 | tipifarnib -0.065 | mubritinib 0.012
active: crizotinib 0.332

HAUS2 (UniProt Q9NVX0)
inactive: [5] 0.001 | duvelisib -0.387 | [1] 0.082 | dasatinib -0.022 | [7] -0.041 | tipifarnib 0.022 | mubritinib 0.056

H2AFY (UniProt O75367)
inactive: crizotinib -0.354 | [2] -0.461 | [5] 0.25 | gandotinib -0.236 | tozasertib 0.145 | doramapimod 0.219 | ispinesib -0.129 | bafetinib 0.13 | [6] -0.011 | nilotinib -0.001 | [3] -0.093 | [4] 0.128 | [7] 0.047 | [8] -0.082 | tipifarnib 0.002 | mubritinib -0.113

GYG2 (UniProt O15488)
inactive: mubritinib 0.194

HGF (UniProt P14210)
inactive: [9] 0.06 | [2] 0.067 | [5] 0.124 | duvelisib -0.313 | tozasertib 0.028 | [1] -0.18 | bafetinib -0.161 | nilotinib 0.047 | [3] -0.038 | dasatinib 0.262 | [4] -0.156 | [7] 0.142 | mubritinib -0.155

GTF3C3 (UniProt Q9Y5Q9)
inactive: crizotinib 0.265 | duvelisib -0.538 | gandotinib -0.067 | tozasertib -0.407 | [1] 0.239 | doramapimod 0.065 | bafetinib -0.04 | [6] 0.044 | nilotinib 0.099 | [3] -0.071 | dasatinib 0.09 | [4] -0.316 | tipifarnib -0.162 | mubritinib 0.169

HAUS4 (UniProt Q9H6D7)
inactive: [9] 0.068 | [2] 0.024 | [5] 0.139 | gandotinib 0.015 | [1] -0.195 | ispinesib -0.259 | bafetinib -0.069 | [6] 0.023 | nilotinib 0.08 | [3] 0.086 | dasatinib 0.178 | [4] 0.567 | [7] -0.045 | [8] -0.051 | tipifarnib -0.115 | mubritinib -0.547

HERPUD1 (UniProt Q15011)
inactive: tozasertib 0.016 | tipifarnib 0.086 | mubritinib -0.07

HEXIM2 (UniProt Q96MH2)
inactive: crizotinib 0.007 | [2] -0.141 | gandotinib -0.009 | doramapimod 0.039 | [6] 0.021

GTF2H4 (UniProt Q92759)
inactive: [9] 0.019 | [2] 0.018 | [5] 0.011 | duvelisib 0.009 | gandotinib 0.167 | tozasertib -0.087 | [1] 0.047 | [6] -0.008 | nilotinib -0.027 | [3] -0.137 | dasatinib -0.061 | [4] -0.002 | [7] -0.092 | tipifarnib 0.184 | mubritinib 0.021

HDAC10 (UniProt Q969S8)
inactive: [5] -0.045 | gandotinib 0.008 | [1] 0.042 | ispinesib 0.065 | bafetinib -0.255 | [6] -0.073 | nilotinib -0.118 | [3] -0.075 | dasatinib -0.027 | [4] -0.08 | [7] 0.071 | [8] 0.001 | tipifarnib 0.046 | mubritinib 0.116

HBD (UniProt E9PEW8)
inactive: gandotinib -0.286 | [6] -0.006 | nilotinib -0.063 | [3] 0.065 | [4] -0.012 | mubritinib -0.242

GSTA1 (UniProt P08263)
inactive: [9] 0.008 | [2] 0.029 | tozasertib -0.077 | bafetinib -0.229 | nilotinib 0.236 | [3] -0.152 | [4] -0.024

HAUS7 isoform 2 (UniProt Q99871)
inactive: ispinesib 0.373 | [8] 0.013

HBB (UniProt P68871)
inactive: mubritinib -0.044

HABP4 (UniProt Q5JVS0)
inactive: [2] -0.021 | ispinesib 0.123 | bafetinib -0.267 | [8] 0.085

GXYLT1 (UniProt Q4G148)
inactive: crizotinib -0.016 | [2] 0.191 | [5] -0.129 | duvelisib 0.196 | gandotinib 0.07 | tozasertib -0.004 | [1] -0.242 | doramapimod 0.073 | ispinesib -0.016 | bafetinib -0.276 | [6] 0.125 | nilotinib 0.081 | [3] -0.053 | dasatinib 0.15 | [4] -0.004 | [7] -0.096 | [8] 0.082 | tipifarnib 0.012 | mubritinib 0.014

GTPBP8 (UniProt Q8N3Z3)
inactive: crizotinib 0.019 | tozasertib 0.047 | doramapimod 0.042 | nilotinib 0.328 | [3] -0.298 | [4] -0.105 | tipifarnib 0.158

HEXD isoform 2 (UniProt Q8WVB3)
inactive: [9] 0.076 | [2] -0.16 | duvelisib 0.572 | gandotinib -0.038 | [1] 0.239 | [6] -0.103 | dasatinib -0.062 | tipifarnib 0.107

GSPT1 isoform 2 (UniProt P15170)
inactive: nilotinib 0.007 | [3] 0.196 | [4] -0.027

GTF2H1 (UniProt P32780)
inactive: crizotinib -0.014 | [5] 0.248 | gandotinib 0.055 | doramapimod 0.089 | ispinesib -0.119 | [6] -0.191 | [7] -0.036 | [8] -0.07 | mubritinib -0.135

HAL (UniProt P42357)
inactive: [9] -0.138 | [2] 0.122 | [5] -0.074 | duvelisib -0.168 | tozasertib 0.219 | [1] -1.11 | nilotinib 0.776 | [3] -0.112 | dasatinib -0.867 | [4] 0.455 | [7] 0.528 | tipifarnib -0.098 | mubritinib -0.436

GZF1 (UniProt Q9H116)
inactive: [9] 0.154 | duvelisib -0.132 | [1] 0.063 | dasatinib 0.143

GSKIP (UniProt Q9P0R6)
inactive: crizotinib 0.194 | [5] -0.04 | duvelisib 0.163 | gandotinib 0.416 | tozasertib 0.125 | [1] 0.036 | doramapimod 0.035 | ispinesib 0.176 | bafetinib 0.01 | [6] -0.081 | nilotinib 0 | [3] 0.257 | dasatinib -0.041 | [4] 0.23 | [7] 0.146 | [8] 0.177 | tipifarnib 0.022 | mubritinib 0

HERPUD2 (UniProt Q9BSE4)
inactive: crizotinib -0.075 | [5] -0.048 | duvelisib 0.046 | [1] 0.05 | doramapimod 0.107 | ispinesib 0.097 | bafetinib -0.04 | dasatinib -0.269 | [7] 0.122 | [8] -0.111

HAUS3 (UniProt Q68CZ6)
inactive: crizotinib -0.073 | [2] -0.162 | [5] 0.207 | duvelisib 0.103 | tozasertib 0.029 | [1] 0.122 | doramapimod 0.183 | ispinesib -0.208 | dasatinib -0.27 | [7] -0.257 | [8] -0.109 | tipifarnib 0.013 | mubritinib 0.028

HBZ, A0A494C057
inactive: bafetinib -0.015 | nilotinib 0.171 | [3] -0.035 | [4] 0.127 | mubritinib -0.08

HAUS8 (UniProt Q9BT25)
inactive: [5] 0.251 | gandotinib 0.141 | ispinesib -0.116 | [6] 0.086 | nilotinib -0.028 | [3] -0.171 | [4] 0.062 | [7] -0.167 | [8] -0.24 | tipifarnib 0.083 | mubritinib -0.235

HDAC8 (UniProt Q9BY41)
inactive: [2] -0.162

H3-3A (UniProt P84243)
inactive: [9] 0.082 | [5] 0.038 | [1] 0.106 | bafetinib -0.046 | nilotinib -0.038 | [3] -0.123 | dasatinib -0.133 | [4] -0.067 | [7] 0.08 | tipifarnib -0.261 | mubritinib 0.236

HACD2 (UniProt Q6Y1H2)
inactive: [5] 0.288 | tozasertib -0.017 | [7] 0.245 | tipifarnib -0.005 | mubritinib -0.039

HELLS (UniProt Q9NRZ9)
inactive: [2] -0.2 | gandotinib -0.086 | bafetinib -0.201 | [6] -0.04

HACE1 (UniProt Q8IYU2)
inactive: tozasertib -0.083

7 neighbouring records from above, quoted:
HERPUD2 (UniProt Q9BSE4)
inactive: crizotinib -0.075 | [5] -0.048 | duvelisib 0.046 | [1] 0.05 | doramapimod 0.107 | ispinesib 0.097 | bafetinib -0.04 | dasatinib -0.269 | [7] 0.122 | [8] -0.111

HAUS3 (UniProt Q68CZ6)
inactive: crizotinib -0.073 | [2] -0.162 | [5] 0.207 | duvelisib 0.103 | tozasertib 0.029 | [1] 0.122 | doramapimod 0.183 | ispinesib -0.208 | dasatinib -0.27 | [7] -0.257 | [8] -0.109 | tipifarnib 0.013 | mubritinib 0.028

HBZ, A0A494C057
inactive: bafetinib -0.015 | nilotinib 0.171 | [3] -0.035 | [4] 0.127 | mubritinib -0.08

HAUS8 (UniProt Q9BT25)
inactive: [5] 0.251 | gandotinib 0.141 | ispinesib -0.116 | [6] 0.086 | nilotinib -0.028 | [3] -0.171 | [4] 0.062 | [7] -0.167 | [8] -0.24 | tipifarnib 0.083 | mubritinib -0.235

HDAC8 (UniProt Q9BY41)
inactive: [2] -0.162

H3-3A (UniProt P84243)
inactive: [9] 0.082 | [5] 0.038 | [1] 0.106 | bafetinib -0.046 | nilotinib -0.038 | [3] -0.123 | dasatinib -0.133 | [4] -0.067 | [7] 0.08 | tipifarnib -0.261 | mubritinib 0.236

HACD2 (UniProt Q6Y1H2)
inactive: [5] 0.288 | tozasertib -0.017 | [7] 0.245 | tipifarnib -0.005 | mubritinib -0.039

Additional records follow.

H1-0 (UniProt P07305)
inactive: duvelisib 0.3 | [1] 0.161 | dasatinib 0.298

H3C1 (UniProt P68431)
inactive: ispinesib 0.57 | [8] -0.069

HES1 (UniProt Q14469)
inactive: crizotinib 0.16 | [5] -0.047 | duvelisib 0.026 | gandotinib -0.256 | tozasertib 0.227 | [1] 0.017 | doramapimod -0.069 | [6] 0.07 | dasatinib -0.05 | [7] -0.007 | mubritinib 0.27
